Test results taken from patent publication US20220177577A1.
These are yes or no findings as the source states them, for the method shown. Some entries that bind do so weakly or less than the wild type.

Sequences of proteins named here, by UniProt entry; tags and fusion partners are left off. A change or cut given only in a name is not applied to a line headed by its entry. A line that says so, or that is headed by a name, gives the form on record, which may keep a tag or linker.
rhesus CD117 (F6V858, form named): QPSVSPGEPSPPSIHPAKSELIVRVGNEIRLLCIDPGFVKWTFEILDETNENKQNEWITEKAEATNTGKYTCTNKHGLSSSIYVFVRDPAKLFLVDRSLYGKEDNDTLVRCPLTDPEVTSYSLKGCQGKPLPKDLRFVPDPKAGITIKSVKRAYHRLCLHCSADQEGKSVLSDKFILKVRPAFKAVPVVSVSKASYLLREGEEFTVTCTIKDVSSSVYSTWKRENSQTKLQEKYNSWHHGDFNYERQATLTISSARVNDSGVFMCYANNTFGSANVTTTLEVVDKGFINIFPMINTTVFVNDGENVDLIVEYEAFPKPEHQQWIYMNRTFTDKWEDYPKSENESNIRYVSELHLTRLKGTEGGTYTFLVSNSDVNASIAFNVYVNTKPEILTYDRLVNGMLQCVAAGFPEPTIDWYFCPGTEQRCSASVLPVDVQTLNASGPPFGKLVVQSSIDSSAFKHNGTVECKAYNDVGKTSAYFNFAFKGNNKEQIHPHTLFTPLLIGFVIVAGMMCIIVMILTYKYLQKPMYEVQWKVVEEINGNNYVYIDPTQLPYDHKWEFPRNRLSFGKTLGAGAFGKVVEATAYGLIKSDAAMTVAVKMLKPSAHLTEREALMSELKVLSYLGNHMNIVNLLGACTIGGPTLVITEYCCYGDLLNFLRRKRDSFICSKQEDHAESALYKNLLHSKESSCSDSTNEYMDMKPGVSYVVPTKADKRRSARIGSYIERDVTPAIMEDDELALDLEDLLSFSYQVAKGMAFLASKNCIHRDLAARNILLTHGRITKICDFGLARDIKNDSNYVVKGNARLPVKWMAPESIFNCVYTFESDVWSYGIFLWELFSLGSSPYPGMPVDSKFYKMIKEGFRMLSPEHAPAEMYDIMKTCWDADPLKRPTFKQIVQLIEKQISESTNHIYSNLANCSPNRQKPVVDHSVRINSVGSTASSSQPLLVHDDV
UniProt P10721: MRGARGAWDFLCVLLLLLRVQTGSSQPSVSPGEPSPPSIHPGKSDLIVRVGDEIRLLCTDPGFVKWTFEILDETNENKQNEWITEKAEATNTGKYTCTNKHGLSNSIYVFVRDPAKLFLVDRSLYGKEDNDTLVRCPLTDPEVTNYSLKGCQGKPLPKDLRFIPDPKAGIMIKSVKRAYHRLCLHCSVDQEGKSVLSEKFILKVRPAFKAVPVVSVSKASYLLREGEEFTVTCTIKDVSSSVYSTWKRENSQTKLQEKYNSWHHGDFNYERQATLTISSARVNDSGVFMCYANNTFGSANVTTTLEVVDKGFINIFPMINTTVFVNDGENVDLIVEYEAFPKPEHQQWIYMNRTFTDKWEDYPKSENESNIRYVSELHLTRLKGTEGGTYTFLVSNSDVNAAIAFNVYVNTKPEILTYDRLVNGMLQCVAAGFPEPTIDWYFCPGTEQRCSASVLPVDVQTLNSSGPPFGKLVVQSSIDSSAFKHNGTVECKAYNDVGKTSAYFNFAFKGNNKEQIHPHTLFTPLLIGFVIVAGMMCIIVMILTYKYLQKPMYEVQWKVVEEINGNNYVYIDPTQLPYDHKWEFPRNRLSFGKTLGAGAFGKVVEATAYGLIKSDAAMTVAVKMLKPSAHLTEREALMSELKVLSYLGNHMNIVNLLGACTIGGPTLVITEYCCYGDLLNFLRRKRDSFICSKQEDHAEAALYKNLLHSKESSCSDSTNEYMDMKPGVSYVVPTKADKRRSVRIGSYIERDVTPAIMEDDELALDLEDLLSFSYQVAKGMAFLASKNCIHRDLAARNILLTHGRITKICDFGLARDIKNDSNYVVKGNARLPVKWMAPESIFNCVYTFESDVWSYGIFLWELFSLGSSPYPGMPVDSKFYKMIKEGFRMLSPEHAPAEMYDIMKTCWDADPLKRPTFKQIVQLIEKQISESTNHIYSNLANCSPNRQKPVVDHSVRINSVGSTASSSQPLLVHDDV

Tests used:
Test in all cases: antibodies from a yeast library screen; binding assay not described
rhesus CD117 (rhesus) = rhesus CD117 (rhesus) (UniProt F6V858)
[1] = molecular target: human CD117 isoform 2 (human) (UniProt P10721)
[2] = molecular target: human CD117 isoform 1 (human) (UniProt P10721)

Measured: binding

B1: Antibody 57 (antibody, V domains shown)
VH: QVQLVQSGAEVKKPGSSVKVSCKASGGTFSLYAISWVRQAPGQGLEWMGGIIPHFGLANYAQKFQGRVTITADESTSTAYMELSSLRSEDTAVYYCARGGLDTDEFDLWGRGTLVTVSS
VL: DIQMTQSPSSLSASVGDRVTITCRASQSINSYLNWYQQKPGKAPKLLIYAASSLQSGVPSRFSGSGSGTDFTLTISSLQPEDFATYYCQQGVSDITFGGGTKVEIKR
binds: all assays above

B2: Antibody 61 (antibody, V domains shown)
VH: EVQLLESGGGLVQPGGSLRLSCAASGFTFSSYVMIWVRQAPGKGLEWVSSISGDSVTTYYADSVKGRFTISRDNSKNTLYLQMNSLRAEDTAVYYCAKGPPTYHTNYYYMDVWGKGTTVTVSS
VL: DIQMTQSPSSVSASVGDRVTITCRASQGISSWLAWYQQKPGKAPKLLIYAASSLQSGVPSRFSGSGSGTDFTLTISSLQPEDFATYYCQQTNSFPYTFGGGTKVEIKR
binds: all assays above

B3: Antibody 55 (antibody, V domains shown)
VH: QVQLVQSGAEVKKPGSSVKVSCKASGGTFRIYAISWVRQAPGQGLEWMGGIIPDFGVANYAQKFQGRVTITADESTSTAYMELSSLRSEDTAVYYCARGGLDTDEFDLWGRGTLVTVSS
VL: DIQMTQSPSSLSASVGDRVTITCRASQSINSYLNWYQQKPGKAPKLLIYAASSLQSGVPSRFSGSGSGTDFTLTISSLQPEDFATYYCQQGVSDITFGGGTKVEIKR
binds: all assays above
